Measured data: PubChem BioAssay AID1259254 (NCATS, 2017)

- Test: 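Genome-wide screen for genes that prevent DNA re-replication in cancer cells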 (primary screen)
- Cells: human HCT116 colorectal cancer cells
- Reagent: single siRNA against human genes
- Time to read-out: 3 days
- Measured: 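Imaged Hoechst DNA stain sorts each cell into a cycle phase by DNA amount; per plate, G2 fraction set to 0% for non-targeting and 100% for GMNN siRNA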
- Scale: G2 robust z-score and G2 cells, % of GMNN control: higher = more G2 cells, more excess DNA replication; raw share of cells in G2: higher = larger share of cells with G2 DNA content
- Call rule: 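An siRNA counts as active if its G2 robust z-score lies at least 5 MADs above the screen median; here such calls match roughly 38% of GMNN control or more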
This is a random part of about 59,000 reagents tested. Of all reagents, about 1,550 (2.6%) got an active call. 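G2 share is only a proxy for re-replication; each gene was hit by three separate siRNAs, and active genes were retested.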 Raw values vary from plate to plate and are shown uncorrected. Unmarked entries are inactive. Reagents against one gene are numbered here. Not stated in the record: the amount of reagent.

no.	target	siRNA no.	G2 robust z-score	G2 cells, % of GMNN control	raw share of cells in G2 (%)
1	METTL5	1	-1.08	-4.64	4.06
2	METTL5	2	1.31	12.2	8.23
3	METTL5	3	-0.654	-1.63	3.45
4	COL6A4P1	1	-0.846	-2.98	2.96
5	COL6A4P1	2	-0.065	2.51	4.36
6	COL6A4P1	3	-0.984	-3.95	2.6
7	COL6A4P1	4	0.196	4.34	5.37
8	COL6A4P1	5	-0.264	1.11	3.96
9	COL6A4P1	6	2.62	21.4	11.5
10	NMUR2	1	1.04	10.3	9.53
11	NMUR2	2	-1.31	-6.27	2.32
12	NMUR2	3	0.332	5.31	4.9
13	ARFGAP2	1	-0.247	1.23	5.94
14	ARFGAP2	2	0.424	5.95	6.35
15	ARFGAP2	3	-0.548	-0.885	4.46
16	OMP	1	0.744	8.2	6.32
17	OMP	2	-1.01	-4.17	3.2
18	OMP	3	0.257	4.78	6.11
19	NCALD	1	0.564	6.94	5.24
20	NCALD	2	-0.812	-2.74	4.67
21	NCALD	3	0.34	5.36	5.32
22	CMTM4	1	0.857	8.99	6.84
23	CMTM4	2	-0.837	-2.92	2.01
24	CMTM4	3	-0.698	-1.95	2.39
25	ADPRS	1	0.593	7.14	6.16
26	ADPRS	2	0.848	8.93	8.03
27	ADPRS	3	2.94	23.6	11
28	WTIP	1	0.664	7.64	5.72
29	WTIP	2	0.891	9.23	6.37
30	WTIP	3	-0.14	1.98	4.22
31	WDR64	1	-0.245	1.25	6.25
32	WDR64	2	1.14	11	9.69
33	WDR64	3	-0.461	-0.278	4.38
34	OR2D2	1	2.96	23.8	13.6
35	OR2D2	2	0.332	5.3	4.91
36	OR2D2	3	-0.489	-0.471	1.68
37	MARCHF3	1	1.71	15	11.4
38	MARCHF3	2	2.08	17.6	13.8
39	MARCHF3	3	-0.654	-1.64	3.86
40	ST8SIA1	1	2.4	19.9	12.4
41	ST8SIA1	2	1.02	10.1	8.02
42	ST8SIA1	3	1.6	14.2	8.66
43	CSPG4	1	0.39	5.71	7.98
44	CSPG4	2	-0.419	0.0221	4.1
45	CSPG4	3	-0.514	-0.65	3.27

Records above whose target name starts with A or a:
target	siRNA no.	G2 robust z-score	G2 cells, % of GMNN control	raw share of cells in G2 (%)
ARFGAP2	1	-0.247	1.23	5.94
ARFGAP2	2	0.424	5.95	6.35
ARFGAP2	3	-0.548	-0.885	4.46
ADPRS	1	0.593	7.14	6.16
ADPRS	2	0.848	8.93	8.03
ADPRS	3	2.94	23.6	11

Further results follow.
no.	target	siRNA no.	G2 robust z-score	G2 cells, % of GMNN control	raw share of cells in G2 (%)
46	FOXG1	1	-0.331	0.638	5.51
47	FOXG1	2	2.59	21.2	12.9
48	FOXG1	3	1.27	11.9	7.91
49	NPPB	1	-0.884	-3.25	2.09
50	NPPB	2	5.84 (active)	44	22.6
51	NPPB	3	-0.583	-1.14	4.77
52	FZD10	1	0.366	5.54	7.82
53	FZD10	2	-0.426	-0.0333	4.51
54	FZD10	3	-1.07	-4.56	1.87
55	MED27	1	1.92	16.5	13.3
56	MED27	2	3.44	27.2	14.7
57	MED27	3	1.41	12.9	7.83
58	MOG	1	-0.517	-0.668	4.69
59	MOG	2	-0.253	1.19	4.69
60	MOG	3	-0.497	-0.531	3.16
61	CT45A3	1	-0.387	0.242	3.72
62	CT45A3	2	-0.443	-0.147	3.36
63	CT45A3	3	-0.378	0.306	3.22
64	MYH6	1	1.3	12.1	10
65	MYH6	2	2.03	17.3	8.89
66	MYH6	3	-0.381	0.286	5.58
67	PLAC4	1	0.766	8.35	6.6
68	PLAC4	2	-0.447	-0.174	2.9
69	PLAC4	3	-0.718	-2.08	2.1
70	GNAT2	1	-0.895	-3.33	4.03
71	GNAT2	2	0.496	6.46	7.72
72	GNAT2	3	-0.266	1.09	4.05
73	PAG1	1	1.7	14.9	10.3
74	PAG1	2	-0.104	2.23	5.06
75	PAG1	3	-1.42	-7.01	0.901
76	OR5T3	1	-0.0484	2.63	4.67
77	OR5T3	2	0.323	5.24	5.68
78	OR5T3	3	-0.805	-2.69	3.48
79	BNIP2	1	0.941	9.59	9.8
80	BNIP2	2	5.17 (active)	39.3	18.5
81	BNIP2	3	-0.978	-3.91	1.99
82	MARCHF10	1	0.0872	3.58	3.89
83	MARCHF10	2	0.391	5.72	5.65
84	MARCHF10	3	-0.0358	2.72	3.87
85	LINC02905	1	0.00349	2.99	4.78
86	LINC02905	2	-0.231	1.34	3.92
87	LINC02905	3	1.43	13	7.55
